{
  "sequences": {"note": "Protein sequences, listed by entry. Tags and fused reporters are not part of them.", "UniProt Q92993": "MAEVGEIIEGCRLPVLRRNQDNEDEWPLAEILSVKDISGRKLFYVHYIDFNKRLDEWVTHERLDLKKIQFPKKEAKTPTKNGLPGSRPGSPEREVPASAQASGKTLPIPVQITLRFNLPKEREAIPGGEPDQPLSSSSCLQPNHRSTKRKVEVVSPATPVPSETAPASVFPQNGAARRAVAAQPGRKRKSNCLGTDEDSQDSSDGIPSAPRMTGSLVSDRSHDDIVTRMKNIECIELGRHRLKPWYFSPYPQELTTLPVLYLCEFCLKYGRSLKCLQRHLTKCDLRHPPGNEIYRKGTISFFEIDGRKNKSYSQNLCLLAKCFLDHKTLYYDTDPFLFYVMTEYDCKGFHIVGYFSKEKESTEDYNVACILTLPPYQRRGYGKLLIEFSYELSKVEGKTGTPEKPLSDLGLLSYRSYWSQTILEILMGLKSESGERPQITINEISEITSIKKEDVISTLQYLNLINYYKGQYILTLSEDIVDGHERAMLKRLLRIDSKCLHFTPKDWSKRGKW"},
  "source": "paper PMC6714504",
  "molecules": {"B1": {"name": "KDM2B (endogenous, HOS cells) (protein, UniProt Q8NHM5 1-1336)", "chain": "MAGPQMGGSAEDHPPRKRHAAEKQKKKTVIYTKCFEFESATQRPIDRQRYDENEDLSDVEEIVSVRGFSLEEKLRSQLYQGDFVHAMEGKDFNYEYVQREALRVPLIFREKDGLGIKMPDPDFTVRDVKLLVGSRRLVDVMDVNTQKGTEMSMSQFVRYYETPEAQRDKLYNVISLEFSHTKLEHLVKRPTVVDLVDWVDNMWPQHLKEKQTEATNAIAEMKYPKVKKYCLMSVKGCFTDFHIDFGGTSVWYHVFRGGKIFWLIPPTLHNLALYEEWVLSGKQSDIFLGDRVERCQRIELKQGYTFFIPSGWIHAVYTPVDSLVFGGNILHSFNVPMQLRIYEIEDRTRVQPKFRYPFYYEMCWYVLERYVYCVTQRSHLTQEYQRESMLIDAPRKPSIDGFSSDSWLEMEEEACDQQPQEEEEKDEEGEGRDRAPKPPTDGSTSPTSTPSEDQEALGKKPKAPALRFLKRTLSNESEESVKSTTLAVDYPKTPTGSPATEVSAKWTHLTEFELKGLKALVEKLESLPENKKCVPEGIEDPQALLEGVKNVLKEHADDDPSLAITGVPVVTWPKKTPKNRAVGRPKGKLGPASAVKLAANRTTAGARRRRTRCRKCEACLRTECGECHFCKDMKKFGGPGRMKQSCIMRQCIAPVLPHTAVCLVCGEAGKEDTVEEEEGKFNLMLMECSICNEIIHPGCLKIKESEGVVNDELPNCWECPKCNHAGKTGKQKRGPGFKYASNLPGSLLKEQKMNRDNKEGQEPAKRRSECEEAPRRRSDEHSKKVPPDGLLRRKSDDVHLRKKRKYEKPQELSGRKRASSLQTSPGSSSHLSPRPPLGSSLSPWWRSSLTYFQQQLKPGKEDKLFRKKRRSWKNAEDRMALANKPLRRFKQEPEDELPEAPPKTRESDHSRSSSPTAGPSTEGAEGPEEKKKVKMRRKRRLPNKELSRELSKELNHEIQRTENSLANENQQPIKSEPESEGEEPKRPPGICERPHRFSKGLNGTPRELRHQLGPSLRSPPRVISRPPPSVSPPKCIQMERHVIRPPPISPPPDSLPLDDGAAHVMHREVWMAVFSYLSHQDLCVCMRVCRTWNRWCCDKRLWTRIDLNHCKSITPLMLSGIIRRQPVSLDLSWTNISKKQLSWLINRLPGLRDLVLSGCSWIAVSALCSSSCPLLRTLDVQWVEGLKDAQMRDLLSPPTDNRPGQMDNRSKLRNIVELRLAGLDITDASLRLIIRHMPLLSKLHLSYCNHVTDQSINLLTAVGTTTRDSLTEINLSDCNKVTDQCLSFFKRCGNICHIDLRYCKQVTKEGCEQFIAEMSVSVQFGQVEEKLLQKLS"}},
  "key": {"[1]": {"target": "T1, KDM2B, exogenous, tagged (MG-63 cells) (UniProt Q8NHM5)", "T1 sequence": "B1 chain", "test": "co-IP; MG-63 cell lysates, exogenous tagged proteins, immunoprecipitated with anti-HA antibody, antibodies against Myc and Flag to detect Tip60"}, "GST-KDM2B": {"target": "T2, GST-KDM2B (UniProt Q8NHM5)", "T2 sequence": "B1 chain", "test": "pull-down; GST pull-down of GST-KDM2B with human HA-tagged Tip60"}, "[2]": {"target": "Tip60 (endogenous, HOS cells) (human (endogenous in HOS)) (UniProt Q92993)", "test": "co-IP; HOS cell lysates, immunoprecipitated with anti-Tip60 antibody, blotted for KDM2B and Tip60; endogenous proteins"}},
  "note": "Results are given in words; binding and its absence hold for the method and conditions named. Binding seen in cells or lysates may run through a third protein. Some results given as binding are weak or reduced against the parent protein; the word gives no strength. For part of these data: Tags and fused reporters may be left off the sequences shown.",
  "data": [
    {"molecule": "Tip60, exogenous, tagged (MG-63 cells) (from UniProt Q92993 1-513)", "values": [
      {"measurement": "binding", "setting": "[1]", "value": "binds"}
    ]},
    {"molecule": "human HA-tagged Tip60 (from UniProt Q92993 1-513)", "values": [
      {"measurement": "binding", "setting": "GST-KDM2B", "value": "binds"}
    ]},
    {"molecule": "B1", "values": [
      {"measurement": "binding", "setting": "[2]", "value": "binds"}
    ]}
  ]
}
